Data as given in PubChem BioAssay AID1259405 (NCATS, 2018)
Screen: 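Knock-downs that lift recombinant protein yield in hamster ovary cells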 (primary screen). Cells: Chinese hamster CHO-K1 ovary cells with stable secreted eGFP expression. Reagents: single siRNA against mouse genes, 0.8 pmol siRNA per well (2 µl of 400 nM stock). Timing: 3 days. Measurement: 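Per-well intracellular GFP measured by laser scanning cytometry, plus viability from ATP luminescence, each relative to plate median of non-targeting control wells, in %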. Direction: GFP, % of control: higher = more GFP per well, higher productivity; viability (ATP), % of control: higher = more viable cells (more ATP). Hit rule: 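Called active when intracellular GFP, relative to negative control, is at or above 120%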.
Shown is a random part of about 50,000 reagents tested. About 4,000 of all reagents (8%) count as active. 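Mouse siRNA library applied to hamster cells; one well for each siRNA.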 Entries without a mark were called inactive. Reagents against one gene are numbered here. No sequences are given here.

The first 10 entries, to show the layout:
| gene | reagent no. | GFP, % of control | viability (ATP), % of control |
| --- | --- | --- | --- |
| Dock5 | 1 | 49.2 | 50.8 |
| Dock5 | 2 | 78.6 | 97.4 |
| Dock5 | 3 | 84.6 | 59 |
| Chl1 | 1 | 70.8 | 65.3 |
| Chl1 | 2 | 85.3 | 55.2 |
| Hkdc1 | 1 | 60.3 | 54.3 |
| Tmprss11f | 1 | 151 (active) | 109 |
| Tmprss11f | 2 | 53.7 | 62.2 |
| Tmprss11f | 3 | 111 | 109 |
| St7l | 1 | 93.2 | 68.8 |

Main list, repeating the preview:
| gene | reagent no. | GFP, % of control | viability (ATP), % of control |
| --- | --- | --- | --- |
| Dock5 | 1 | 49.2 | 50.8 |
| Dock5 | 2 | 78.6 | 97.4 |
| Dock5 | 3 | 84.6 | 59 |
| Chl1 | 1 | 70.8 | 65.3 |
| Chl1 | 2 | 85.3 | 55.2 |
| Hkdc1 | 1 | 60.3 | 54.3 |
| Tmprss11f | 1 | 151 (active) | 109 |
| Tmprss11f | 2 | 53.7 | 62.2 |
| Tmprss11f | 3 | 111 | 109 |
| St7l | 1 | 93.2 | 68.8 |
| St7l | 2 | 70.2 | 100 |
| St7l | 3 | 95.4 | 79.6 |
| Rgs20 | 1 | 66.2 | 40.2 |
| Rgs20 | 2 | 71.4 | 71.9 |
| Rgs20 | 3 | 42.8 | 56.8 |
| Sult2a2 | 1 | 78.2 | 88.3 |
| Sult2a2 | 2 | 45.9 | 69.6 |
| Sult2a2 | 3 | 75.3 | 85 |
| Cyp2c29 | 1 | 86.4 | 86.1 |
| Cyp2c29 | 2 | 66.7 | 43.3 |
| Cyp2c29 | 3 | 80.6 | 67.6 |
| Kcna4 | 1 | 91.4 | 48.3 |
| Kcna4 | 2 | 118 | 62.8 |
| Kcna4 | 3 | 109 | 68.6 |
| Gm20735 | 1 | 91.1 | 72.5 |
| Gm20735 | 2 | 77.7 | 61.2 |
| Gm20735 | 3 | 69.7 | 97.6 |
| Usp6nl | 1 | 35.2 | 18.2 |
| Usp6nl | 2 | 40.4 | 32.7 |
| Usp6nl | 3 | 72.7 | 54 |
| Ankrd13d | 1 | 64.2 | 76.7 |
| Ankrd13d | 2 | 59.7 | 72 |
| Ankrd13d | 3 | 68.7 | 49.3 |
| P2ry1 | 1 | 52.7 | 28.5 |
| P2ry1 | 2 | 97.1 | 59.5 |
| P2ry1 | 3 | 82.2 | 53.8 |
| Dppa1 | 1 | 52.3 | 54.9 |
| Dppa1 | 2 | 83.6 | 77.3 |
| Dppa1 | 3 | 60.8 | 67.4 |
| Pde6g | 1 | 93.1 | 107 |
| Pde6g | 2 | 69.1 | 52.8 |
| Pde6g | 3 | 40.3 | 40.1 |
| Trp53rka | 1 | 63.5 | 77.1 |
| Trp53rka | 2 | 146 (active) | 91 |
| Trp53rka | 3 | 43.6 | 51.6 |
| Kpna1 | 1 | 84.7 | 84.6 |
| Kpna1 | 2 | 100 | 103 |
| Kpna1 | 3 | 55.8 | 74 |
| Or11h6 | 1 | 80.8 | 36.7 |
| Or11h6 | 2 | 92 | 111 |
| Or11h6 | 3 | 54.2 | 57.4 |
| Ca14 | 1 | 87.5 | 75.5 |
| Ca14 | 2 | 58.9 | 66.2 |
| Fcrl1 | 1 | 67.5 | 68.8 |
| Fcrl1 | 2 | 49.2 | 69.3 |
| Fcrl1 | 3 | 88 | 69.5 |
| Cyp27b1 | 1 | 61.4 | 82.7 |
| Cyp27b1 | 2 | 59.9 | 83.3 |
| Cyp27b1 | 3 | 55 | 39.9 |
| Gata5 | 1 | 54.6 | 67.2 |
| Gata5 | 2 | 63.6 | 63.6 |
| Gabarap | 1 | 66.2 | 80.3 |
| Gabarap | 2 | 63.5 | 89.8 |
| Katna1 | 1 | 73 | 72.6 |
| Katna1 | 2 | 49.2 | 116 |
| Epm2aip1 | 1 | 75 | 81.1 |
| Epm2aip1 | 2 | 45.1 | 37 |
| Epm2aip1 | 3 | 96.1 | 87.6 |
| Cst3 | 1 | 73.2 | 63.5 |
| Cst3 | 2 | 71.2 | 82.7 |
| Cst3 | 3 | 172 (active) | 71.9 |
| Cst3 | 4 | 97.8 | 87 |
| Cst3 | 5 | 106 | 85.9 |
| Cst3 | 6 | 144 (active) | 75.5 |
| Rab43 | 1 | 50.5 | 54.5 |
| Rab43 | 2 | 40.4 | 48.1 |
| Rab43 | 3 | 66.4 | 66.1 |
| Irak1bp1 | 1 | 48 | 64.6 |
| Irak1bp1 | 2 | 72.4 | 63.2 |
| Irak1bp1 | 3 | 154 (active) | 82.5 |
| Kti12 | 1 | 80.4 | 100 |
| Kti12 | 2 | 87 | 86.8 |
| Rnf144b | 1 | 121 (active) | 73.6 |
| Rnf144b | 2 | 48.8 | 63.8 |
| Rnf144b | 3 | 89.7 | 128 |
